Patent publication US20140357579A1 (priority 2006, published 2014)
For some assays here: Some peptides are written in HELM: one residue between dots, names in brackets for other building blocks, links after the first $.

Key:
[1] = general procedure: Fmoc solid-phase peptide synthesis; p-nitrophenylcarbonate Wang resin; DIC/HOBt, HATU/DIEA, HBTU/DIEA, TBTU/DIEA, PyBOP/DIEA, BOP/DIEA; settings: whole synthesis, scale 4.4 mmol
[2] = general procedure: Fmoc solid-phase peptide synthesis; 2-chlorotrityl chloride resin, hydrazinobenzoyl resin, Rink Amide AM resin or p-nitrophenylcarbonate Wang resin; DIC/HOBt, HATU/DIEA, HBTU/DIEA, TBTU/DIEA, PyBOP/DIEA, BOP/DIEA; settings: for final HPLC purity: analytical RP-HPLC, Vydac C18, UV detector
[3] = general procedure: Fmoc solid-phase peptide synthesis; 2-Chlorotrityl chloride resin; DIC/HOBt, HATU/DIEA, HBTU/DIEA, TBTU/DIEA, PyBOP/DIEA, BOP/DIEA; settings: whole synthesis
[4] = general procedure: Fmoc solid-phase peptide synthesis; Rink Amide AM resin; DIC/HOBt, HATU/DIEA, HBTU/DIEA, TBTU/DIEA, PyBOP/DIEA, BOP/DIEA; settings: whole synthesis, scale 0.3 mmol
[5] = whole synthesis, scale 0.4 mmol
[6] = whole synthesis, scale 0.3 mmol

Substance | final HPLC purity ([2]; whole synthesis) [%] | isolated mass [2, 6] [mg] | also measured
Cbz-D-Phe-D-Phe-D-Leu-D-Orn(Cbz)-[homopiperazine amide] | – | – | crude mass [1]: 4.4 g
D-Phe-D-Phe-D-Leu-D-Orn-[4-(4-piperidinyl)-butanoic acid]-OH | 100 | – | isolated mass [2, 5]: 474 mg
D-Phe-D-Phe-D-Leu-D-Orn-[4-ethylhomopiperazine amide] | – | – | final HPLC purity ([2]; late stage modification step): 98.4%
D-Phe-D-Phe-D-Leu-D-Orn-[(2S,4R)-4-Amino-pyrrolidine-2-carboxylic acid]-OH | 99.4 | 294 | –
D-Phe-D-Phe-D-Leu-D-Orn-[4-(2-aminoethyl)-1-carboxymethyl-piperazine]-OH | 100 | – | crude mass ([3]; scale 0.4 mmol): 0.2 g; isolated mass [2, 5]: 101 mg
D-Phe-D-Phe-D-Leu-D-Orn-[4-Carboxymethyl-piperidine]-OH | 100 | – | isolated mass [2, 5]: 123 mg
D-Phe-D-Phe-D-Leu-(δ-iPr)D-Orn-[omega(4-Aminopiperidine-4-carboxylic acid)]-OH | 98.9 | – | isolated mass ([3]; scale 0.8 mmol): 336 mg
D-Phe-D-Phe-D-Leu-D-Orn-[4-Amino-1-carboxymethyl-piperidine]-NH2 | 99.7 | 65 | –
D-Phe-D-Phe-D-Leu-D-Orn-[4-(2-aminoethyl)-1-carboxymethyl-piperazine]-NH2 | 99.5 | – | crude mass [4]: 0.1 g
D-Phe-D-Phe-D-Leu-(δ-Me)D-Orn-[4-Amidinohomopiperazine amide] | 98.9 | 183 | –
D-Phe-D-Phe-D-Leu-D-Orn-[4-Amidinohomopiperazine amide] | – | – | final HPLC purity ([2]; late stage modification step): 98.7%
D-Phe-D-Phe-D-Leu-D-Orn-[eLys(D-Orn-D-Leu-H)]-OH | 99.7 | 396 | –
D-Phe-D-Phe-D-Leu-D-Orn-[N-(4-piperidinyl)-L-proline]-OH | 100 | – | isolated mass [2, 5]: 18 mg
D-Phe-D-Phe-D-Leu-D-Orn-[homopiperazine amide] | – | – | final HPLC purity ([2]; late stage modification step): 100%
PEPTIDE1{[dF].[dF].[dL].[D-Orn].[4-(N-methyl)amidinohomopiperazine]}$$$$V2.0 | – | – | final HPLC purity ([2]; late stage modification step): 99.4%
D-Phe-D-Phe-D-Nle-D-Arg-D-Pro-OH | 99.7 | 140 | –
D-Phe-D-Phe-D-Leu-(6-iPr)D-Orn-[homopiperazine amide] | – | – | final HPLC purity ([2]; late stage modification step): 100%
D-Phe-D-Phe-D-Leu-D-Orn-[N-(4-piperidinyl)-L-proline]-NH2 | 91.7 | 14 | –
D-Phe-D-Phe-D-Leu-D-Orn-[omega(4-Aminopiperidine-4-carboxylic acid)]-OH | 99.7 | 343 | –
D-Phe-D-Phe-D-Leu-D-Orn-[Isonipecotic acid]-OH | 99.3 | – | isolated mass [2, 5]: 125 mg
D-Phe-D-Phe-D-Leu-D-Orn-[4-(4,5-dihydro-1H-imidazol-2-yl)homopiperazine amide] | – | – | final HPLC purity ([2]; late stage modification step): 100%
D-Phe-D-Phe-D-Leu-(-Me)D-Orn-[homopiperazine amide] | – | – | final HPLC purity ([2]; late stage modification step): 99.6%
D-Phe-D-Phe-D-Leu-(δ-iPr)D-Orn-[4-Amidinohomopiperazine amide] | 99.4 | 166 | –
D-Phe-D-Phe-D-Leu-D-Orn-[(2S,4S)-4-Amino-pyrrolidine-2-carboxylic acid]-OH | 99.5 | 285 | –
